This is an account of results in paper PMC10519595.

These are yes or no findings as the source states them, for the method shown. Where a sequence is shown, tags or fusion partners need not be part of it.

This assay deals with T1, high mobility group box 1 (HMGB1), full length, T18 fusion (T18-HMGB1) (human), P09429.
T1 chain: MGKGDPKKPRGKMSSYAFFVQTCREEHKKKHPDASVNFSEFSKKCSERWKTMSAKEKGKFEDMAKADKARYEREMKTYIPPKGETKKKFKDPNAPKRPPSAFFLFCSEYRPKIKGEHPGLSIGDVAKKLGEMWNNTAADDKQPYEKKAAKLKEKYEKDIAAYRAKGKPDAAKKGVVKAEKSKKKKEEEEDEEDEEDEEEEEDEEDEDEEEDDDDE
Nature of the assay: two-hybrid. The conditions noted are these: remark: other sources report otherwise.

B1: high mobility group box 1 (HMGB1), full length, T18 fusion (T18-HMGB1), P09429 1-215 (protein)
chain: T1 chain
Regarding B1, the binding entry was “no binding”.
